{"source": "PubChem BioAssay AID1224826 – NIAID | 2016", "assay": "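Genes that change LPS-induced Tnf promoter activity in mouse macrophages when knocked down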 (primary screen)", "system": "RAW264.7 G9 macrophages from mouse bearing reporters for p65 (GFP) and the Tnf promoter (mCherry)", "knock-down reagent": "siRNA pool against mouse genes, 100 nM", "timing": "16 h of LPS stimulation, after 2 days of siRNA transfection", "treatment": "bacterial lipopolysaccharide (Salmonella minnesota R595), 10 ng/ml", "read-out": "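Imaged Tnf reporter mCherry in nuclei, minus background, normalised per plate to the median and expressed as robust z-scores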", "scale": "Tnf reporter robust z-score: higher = stronger Tnf promoter reporter signal after LPS", "call rule": "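a well counts as active at a score of -1.3 or below (Tlr4 knock-down control median) or above 3 (raised signal); controls and wells holding fewer than 50 cells are excluded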", "calls": "active = Tnf reporter clearly lowered or raised; inactive = no clear change in Tnf reporter", "note": "This is a random part of about 17,000 reagents. Of all reagents, about 1,110 (6.6%) were called active. 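Active means lowered or raised reporter signal; replicate intensities are raw and not normalised per plate.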 Unmarked entries are inactive. Not all columns of the deposit are shown."}
{"Target gene": "Exosc3", "Tnf reporter robust z-score": -0.64, "fewer than 50 cells in well": "enough cells in well"}
{"Target gene": "Ahsa2", "fewer than 50 cells in well": "fewer than 50 cells per well; well left out of calls"}
{"Target gene": "Sun1", "Tnf reporter robust z-score": -0.91, "fewer than 50 cells in well": "enough cells in well"}
{"Target gene": "Smim11", "fewer than 50 cells in well": "fewer than 50 cells per well; well left out of calls"}
{"Target gene": "Snx18", "fewer than 50 cells in well": "fewer than 50 cells per well; well left out of calls"}
{"Target gene": "Phf21a", "Tnf reporter robust z-score": 1.01, "fewer than 50 cells in well": "enough cells in well"}
{"Target gene": "Bmpr2", "Tnf reporter robust z-score": -1.06, "fewer than 50 cells in well": "enough cells in well"}
{"Target gene": "Or5p79", "fewer than 50 cells in well": "fewer than 50 cells per well; well left out of calls"}
{"Target gene": "Mif", "Tnf reporter robust z-score": -0.15, "fewer than 50 cells in well": "enough cells in well"}
{"Target gene": "Epm2aip1", "Tnf reporter robust z-score": 1.24, "fewer than 50 cells in well": "enough cells in well"}
{"Target gene": "Hspb8", "Tnf reporter robust z-score": -0.69, "fewer than 50 cells in well": "enough cells in well"}
{"Target gene": "Rad51c", "Tnf reporter robust z-score": 0.38, "fewer than 50 cells in well": "enough cells in well"}
{"Target gene": "Dysf", "Tnf reporter robust z-score": -0.45, "fewer than 50 cells in well": "enough cells in well"}

3 consecutive entries already listed, quoted:
{"Target gene": "Or5p79", "fewer than 50 cells in well": "fewer than 50 cells per well; well left out of calls"}
{"Target gene": "Mif", "Tnf reporter robust z-score": -0.15, "fewer than 50 cells in well": "enough cells in well"}
{"Target gene": "Epm2aip1", "Tnf reporter robust z-score": 1.24, "fewer than 50 cells in well": "enough cells in well"}

Continued:
{"Target gene": "Nphs2", "Tnf reporter robust z-score": -0.65, "fewer than 50 cells in well": "enough cells in well"}
{"Target gene": "Tmem115", "Tnf reporter robust z-score": 2.45, "fewer than 50 cells in well": "enough cells in well"}
{"Target gene": "Sdhd", "Tnf reporter robust z-score": 0.54, "fewer than 50 cells in well": "enough cells in well"}
{"Target gene": "Bpifc", "Tnf reporter robust z-score": 0.68, "fewer than 50 cells in well": "enough cells in well"}
{"Target gene": "Cnot2", "Tnf reporter robust z-score": 0.42, "fewer than 50 cells in well": "enough cells in well"}
{"Target gene": "Dennd2a", "Tnf reporter robust z-score": 1.68, "fewer than 50 cells in well": "enough cells in well"}
{"Target gene": "Acadsb", "Tnf reporter robust z-score": 1.28, "fewer than 50 cells in well": "enough cells in well"}
{"Target gene": "Or10k2", "Tnf reporter robust z-score": -1.14, "fewer than 50 cells in well": "enough cells in well"}
